According to doi:10.1101/2022.08.18.504421:
No constants are given. Whether binding was seen depends on the method and setting. Binding seen in cells or lysates may run through a third protein. Some binding calls cover weakened binding; strength is not graded here.

Chains of the proteins cited; added tags and fusions are not shown.
UniProt P01123: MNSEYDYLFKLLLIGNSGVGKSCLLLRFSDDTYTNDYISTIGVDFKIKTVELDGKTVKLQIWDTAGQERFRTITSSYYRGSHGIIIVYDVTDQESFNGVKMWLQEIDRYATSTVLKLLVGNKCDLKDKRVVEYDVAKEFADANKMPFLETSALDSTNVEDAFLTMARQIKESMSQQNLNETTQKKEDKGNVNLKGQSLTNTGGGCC

B1: Rrp4p (protein, UniProt P38792 1-359)
chain: MSEVITITKRNGAFQNSSNLSYNNTGISDDENDEEDIYMHDVNSASKSESDSQIVTPGELVTDDPIWMRGHGTYFLDNMTYSSVAGTVSRVNRLLSVIPLKGRYAPETGDHVVGRIAEVGNKRWKVDIGGKQHAVLMLGSVNLPGGILRRKSESDELQMRSFLKEGDLLNAEVQSLFQDGSASLHTRSLKYGKLRNGMFCQVPSSLIVRAKNHTHNLPGNITVVLGVNGYIWLRKTSQMDLARDTPSANNSSSIKSTGPTGAVSLNPSITRLEEESSWQIYSDENDPSISNNIRQAICRYANVIKALAFCEIGITQQRIVSAYEASMVYSNVGELIEKNVMESIGSDILTAEKMRGNGN
B2: Cbc1p (protein, UniProt P34160 1-861)
chain: MFNRKRRGDFDEDENYRDFRPRMPKRQRIPPVVQLCKEMMPDIRTIGESVKAFEDDIKFLSEAIMNEYGHEDYFNNALLSTLNAVVVEQPQKQAAIALLTMVVNSKNNVAGKSIINYFFEELQKWCKQTYNDEFKSTSNETGPWNKIKLILRFLSILSPMFLVDELINIYKSLFELSIELNNLDPGNRVPLSEAIYTNTLLNIPYLFFFNRNNDGLRTKVEELLAYVEQNYLVKTTDINLLREYNGEPPYEMVELVRVVLPNVKKALINNLEQLNELFPDWNHLLTPQTGDEGFNDALTLPSVDDLKSFVRLNKNFGSVDSMWKTPRYAFHVYLPNSAGNFETVVPISTYAGQLFNDIIIDLVESLEFNRKEVARQVITLDLFFKAGIFTEPGESIAQLIATYEENPLAPTFKIEDLAIETILGLIFKLPSVSQPFAYFYTLLVDICQNSPKAIAPVFGRAFRFFYSHLDSLDFELKLRYLDWFSIQMSNFNFSWKWNEWEDDSIKFGKYFYNPKVNFAKNLIQKELRLTSNFSEVEDSLPQEFTKYLDTSYIPRDQLINYYQSLFTGYTVEEDSVRKNDLYFRQEGVPMENTVRKILDYTHKANNSREVTELESILGELKNEYGSIISDFNRFVIILLVQAVTDSGSRSLSHANKYINDLKEDLKTIFAKIELDIETKEYIIIEAVLTFWNANPQTGFLVADAFKYAGLLTSRTIFTFIFNETGLKNNGLIEATAIEAVFRNLSQQISEENESGNNFEFVFERLCTIANSTIDLLDVNADEDIEIPKVNGEMDIDDIEDDKLDLKWKYFTVIGFIKSILRRYSHEYRELADKFIANIDNAIPHESTRRTISNWIQETKEV
B3: Tif4631p (protein, UniProt P39935 1-952)
chain: MTDETAHPTQSASKQESAALKQTGDDQQESQQQRGYTNYNNGSNYTQKKPYNSNRPHQQRGGKFGPNRYNNRGNYNGGGSFRGGHMGANSSNVPWTGYYNNYPVYYQPQQMAAAGSAPANPIPVEEKSPVPTKIEITTKSGEHLDLKEQHKAKLQSQERSTVSPQPESKLKETSDSTSTSTPTPTPSTNDSKASSEENISEAEKTRRNFIEQVKLRKAALEKKRKEQLEGSSGNNNIPMKTTPENVEEKGSDKPEVTEKTKPAEEKSAEPEVKQETPAEEGEQGEKGQIKEESTPKVLTFAERLKLKKQQKEREEKTEGKENKEVPVQEETKSAIESAPVPPSEQVKEETEVAETEQSNIDESATTPAIPTKSDEAEAEVEAEAGDAGTKIGLEAEIETTTDETDDGTNTVSHILNVLKDATPIEDVFSFNYPEGIEGPDIKYKKEHVKYTYGPTFLLQFKDKLNVKADAEWVQSTASKIVIPPGMGRGNRSRDSGRFGNNSSRGHDFRNTSVRNMDDRANSRTSSKRRSKRMNDDRRSNRSYTSRRDRERGSYRNEEKREDDKPKEEVAPLVPSANRWVPKFKSKKTEKKLAPDGKTELLDKDEVERKMKSLLNKLTLEMFDAISSEILAIANISVWETNGETLKAVIEQIFLKACDEPHWSSMYAQLCGKVVKELNPDITDETNEGKTGPKLVLHYLVARCHAEFDKGWTDKLPTNEDGTPLEPEMMSEEYYAAASAKRRGLGLVRFIGFLYRLNLLTGKMMFECFRRLMKDLTDSPSEETLESVVELLNTVGEQFETDSFRTGQATLEGSQLLDSLFGILDNIIQTAKISSRIKFKLIDIKELRHDKNWNSDKKDNGPKTIQQIHEEEERQRQLKNNSRSNSRRTNNSSNRHSFRRDAPPASKDSFITTRTYSQRNSQRAPPPKEEPAAPTSTATNMFSALMGESDDEE
B4: Nrd1p (protein, UniProt P53617 1-575)
chain: MQQDDDFQNFVATLESFKDLKSGISGSRIKKLTTYALDHIDIESKIISLIIDYSRLCPDSHKLGSLYIIDSIGRAYLDETRSNSNSSSNKPGTCAHAINTLGEVIQELLSDAIAKSNQDHKEKIRMLLDIWDRSGLFQKSYLNAIRSKCFAMDISNNTANTASQQLSLDPKQRSKQILSNLKKSPPLNLNISLPTDLTSTDPAKQQAALFQVIAALQKHFKTLPSHTSVGTVAPPQAHTITEYGSRRERERERERYNSRRNRSRSPPAPFSQPSTGRKDRYPSVAQDQYSIGAPNTTFGTNNHHLYPDELNVSNNPHYRPKPVSYDSTLPPDHIKVYSRTLFIGGVPLNMKEWDLANVLKPFAEVQSVILNNSRKHAFVKVYSRHEAENVLQNFNKDGALPLRTRWGVGFGPRDCCDYQHGYSIIPMHRLTDADKKWSVSAQWGGTSGQPLVTGIVFEEPDIIVGEGVSSKAISQKMPTDSGRNGPRSGKPNKSGSISSISPVPYGNAPLASPPPQQYVQPMMQQPYGYAPNQPLPSQGPAAAAPPVPQQQFDPTAQLNSLMNMLNQQQQQQQQS
B5: Nab3p (protein, UniProt P38996 1-802)
chain: MSDENHNSDVQDIPSPELSVDSNSNENELMNNSSADDGIEFDAPEEEREAEREEENEEQHELEDVNDEEEEDKEEKGEENGEVINTEEEEEEEHQQKGGNDDDDDDNEEEEEEEEDDDDDDDDDDDDEEEEEEEEEEGNDNSSVGSDSAAEDGEDEEDKKDKTKDKEVELRRETLEKEQKDVDEAIKKITREENDNTHFPTNMENVNYDLLQKQVKYIMDSNMLNLPQFQHLPQEEKMSAILAMLNSNSDTALSVPPHDSTISTTASASATSGARSNDQRKPPLSDAQRRMRFPRADLSKPITEEEHDRYAAYLHGENKITEMHNIPPKSRLFIGNLPLKNVSKEDLFRIFSPYGHIMQINIKNAFGFIQFDNPQSVRDAIECESQEMNFGKKLILEVSSSNARPQFDHGDHGTNSSSTFISSAKRPFQTESGDMYNDDNGAGYKKSRRHTVSCNIFVKRTADRTYAIEVFNRFRDGTGLETDMIFLKPRMELGKLINDAAYNGVWGVVLVNKTHNVDVQTFYKGSQGETKFDEYISISADDAVAIFNNIKNNRNNSRPTDYRAMSHQQNIYGAPPLPVPNGPAVGPPPQTNYYQGYSMPPPQQQQQQPYGNYGMPPPSHDQGYGSQPPIPMNQSYGRYQTSIPPPPPQQQIPQGYGRYQAGPPPQPPSQTPMDQQQLLSAIQNLPPNVVSNLLSMAQQQQQQPHAQQQLVGLIQSMQGQAPQQQQQQLGGYSSMNSSSPPPMSTNYNGQNISAKPSAPPMSHQPPPPQQQQQQQQQQQQQQQQPAGNNVQSLLDSLAKLQK

Molecular target: Ypt1p-TAP (S. cerevisiae) (UniProt P01123)
Experiment: co-IP

binding	Binder
binds	B1
binds	B2
binds	B3
binds	B4
binds	B5
